# Reference: paper PMC8070743
# Sequences of proteins named here, by UniProt entry; tags and fusion partners are left off. Residues count along the entry.
# UniProt P02769, residues 25-607: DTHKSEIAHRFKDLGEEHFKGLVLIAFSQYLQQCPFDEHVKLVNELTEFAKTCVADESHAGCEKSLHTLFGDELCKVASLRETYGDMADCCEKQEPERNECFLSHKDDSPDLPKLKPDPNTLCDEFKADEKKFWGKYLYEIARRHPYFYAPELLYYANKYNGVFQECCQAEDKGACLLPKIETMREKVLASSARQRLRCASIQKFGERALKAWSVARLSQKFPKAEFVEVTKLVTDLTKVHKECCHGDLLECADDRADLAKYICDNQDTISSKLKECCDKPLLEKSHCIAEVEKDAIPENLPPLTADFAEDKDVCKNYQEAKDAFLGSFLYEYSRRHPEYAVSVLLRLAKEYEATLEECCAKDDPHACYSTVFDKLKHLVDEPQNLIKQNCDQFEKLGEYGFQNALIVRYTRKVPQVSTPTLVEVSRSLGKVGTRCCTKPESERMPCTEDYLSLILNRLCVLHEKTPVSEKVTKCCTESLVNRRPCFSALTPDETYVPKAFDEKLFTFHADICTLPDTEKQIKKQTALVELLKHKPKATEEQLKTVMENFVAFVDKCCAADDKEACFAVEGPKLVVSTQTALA
# UniProt P56704, residues 19-352: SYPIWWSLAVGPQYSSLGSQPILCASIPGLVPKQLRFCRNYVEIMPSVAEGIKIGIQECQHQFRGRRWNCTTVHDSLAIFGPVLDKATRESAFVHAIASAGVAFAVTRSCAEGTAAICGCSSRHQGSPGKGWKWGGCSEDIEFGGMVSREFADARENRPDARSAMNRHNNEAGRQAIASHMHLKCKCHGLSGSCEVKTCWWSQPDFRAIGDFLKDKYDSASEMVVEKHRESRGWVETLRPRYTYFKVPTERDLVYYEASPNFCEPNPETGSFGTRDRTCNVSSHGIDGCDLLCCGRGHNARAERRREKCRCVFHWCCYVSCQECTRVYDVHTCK
# No constants are given. Whether binding was seen depends on the method and setting.
# Target: bovine serum albumin (bovine) (UniProt P02769)
# Experiment: SPR; PN1 or PN2 amine-coupled to CM5 sensor chip at pH 5.0; single-cycle kinetics; wnt3a or BSA at 0.062, 0.185, 0.556, 1.667 and 5 µM (legend; methods say 100 nM); contact 1 min, dissociation 2 min; Biacore T200; 4 °C; 30 µL/min; both purified
substance,measurement,value
human wnt3a (from UniProt P56704 19-352) (ligand),binding,no binding (tested: 0.062-5 µM (legend))
